The values below come from patent publication US11433087B2, “Anti-tumor compound with high CD169 affinity, method thereof, and use thereof” (Xiamen Nuokangde Biological Technology Co., Ltd., priority 2017, dated 2022).

For this series, the system named is mouse melanoma cells (B16F10). Description: Distribution of TCC-Neu5Ac in mouse melanoma cells by laser confocal microscope and ImageJ analysis. The series is classed as cell-based.

As for `CC(=O)N[C@@H]1C(O)C[C@](O)(C(=O)O)OC1C(O)C(O)CNC(=O)c1cc2c(s1)-c1ccccc1OC2` (some centres unmarked) [TCC-Neu5Ac, 9-benzopyranothiophene-n-acetylneuraminic acid monosaccharide], the “distribution on cell surfaces (gray value vs distance, ImageJ dot-plot analysis)” value (B16F10 cell image analysis, FIG. 3) is given as “mainly distributed on the cell membranes”. In addition, the “distribution of TCC-Neu5Ac in the mouse melanoma cells” value (B16F10 cells, 100 μmol (100 μM), 24 hours, confocal, excitation 405 nm, FIG. 2) was “distributed inside of the B16F10 cells and cell membranes of the B16F10 cells”.
